According to paper PMC5872582:
No constants are given. Whether binding was seen depends on the method and setting. In cells and extracts the contact can be indirect. Some entries that bind do so weakly or less than the wild type.

Chains of the proteins cited; added tags and fusions are not shown. Lines headed by an entry give the natural chain unless they say otherwise; changes in a name come on top.
UniProt Q9UN81: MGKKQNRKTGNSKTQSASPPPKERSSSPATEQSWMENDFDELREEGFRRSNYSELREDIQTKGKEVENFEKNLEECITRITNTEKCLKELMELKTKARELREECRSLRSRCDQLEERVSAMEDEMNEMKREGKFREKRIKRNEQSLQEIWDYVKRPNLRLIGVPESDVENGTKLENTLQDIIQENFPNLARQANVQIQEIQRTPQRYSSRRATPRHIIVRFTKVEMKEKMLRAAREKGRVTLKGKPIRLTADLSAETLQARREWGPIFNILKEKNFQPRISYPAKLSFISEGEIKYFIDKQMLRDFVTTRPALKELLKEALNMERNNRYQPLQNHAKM
UniProt Q9Y3Z3: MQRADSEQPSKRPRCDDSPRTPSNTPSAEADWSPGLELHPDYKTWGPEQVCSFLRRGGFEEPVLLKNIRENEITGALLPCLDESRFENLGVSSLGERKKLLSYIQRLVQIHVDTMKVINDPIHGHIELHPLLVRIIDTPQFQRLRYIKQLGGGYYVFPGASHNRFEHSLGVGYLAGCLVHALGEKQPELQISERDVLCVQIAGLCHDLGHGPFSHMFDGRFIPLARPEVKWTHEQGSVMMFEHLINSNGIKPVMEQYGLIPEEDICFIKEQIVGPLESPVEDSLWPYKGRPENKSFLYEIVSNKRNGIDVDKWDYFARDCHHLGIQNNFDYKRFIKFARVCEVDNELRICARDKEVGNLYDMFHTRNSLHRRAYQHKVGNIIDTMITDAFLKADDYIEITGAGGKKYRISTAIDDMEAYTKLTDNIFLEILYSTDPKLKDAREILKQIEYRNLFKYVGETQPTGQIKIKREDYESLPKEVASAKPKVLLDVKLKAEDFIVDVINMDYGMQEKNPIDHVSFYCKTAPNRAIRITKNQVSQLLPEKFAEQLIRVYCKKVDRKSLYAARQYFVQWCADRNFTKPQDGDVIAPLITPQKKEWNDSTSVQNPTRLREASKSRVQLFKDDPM

Biological target: L1 ORF1p-FLAG (ORF1 from the L1 subfamily RP in pcDNA3.1) (human) (UniProt Q9UN81)
Assay: co-IP; 293T cells cotransfected with ORF1p-FLAG or ORF2p-3xFLAG plasmid and SAMHD1 T592A; L1 proteins precipitated with anti-FLAG M2 antibody on magnetic beads; immunoblot with anti-myc

binding: binds weakly
Substance: human SAMHD1 T592A, myc-tagged (from UniProt Q9Y3Z3 1-626)
